In PubChem BioAssay AID256 (DTP/NCI, 2004) one finds T/C and survivor count data, which are given here for 14 compounds.

This assay has as its system CD2F1 mice, L1210 leukemia ip, survival T/C. Kind of assay: NCI In Vivo Anticancer Drug Screen. Data for tumor model L1210 Leukemia (intraperitoneal) in CD2F1 (CDF1) mice. Particulars: T/C endpoint: mean survival time, higher T/C = longer survival. In outline: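 Activity against a transplanted murine tumor was judged by comparing the compound group with a vehicle group. The outcome in the treated animals was divided by that in the controls.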

Setting [1] is: dose: 50.0 mg/kg/injection, schedule: Q01DX009 (ip), vehicle: saline with Tween-80.
[2] abbreviates: dose: 100.0 mg/kg/injection, schedule: Q01DX009 (ip), vehicle: saline with Tween-80.
[3] abbreviates: dose: 100.0 mg/kg/injection, schedule: Q04DX003 (ip), vehicle: saline with Tween-80.
Where [4] appears, read: dose: 200.0 mg/kg/injection, schedule: Q04DX003 (ip), vehicle: saline with Tween-80.
[5] abbreviates: dose: 400.0 mg/kg/injection, schedule: Q04DX003 (ip), vehicle: saline with Tween-80.
Where [6] appears, read: dose: 100.0 mg/kg/injection, schedule: Q04DX002 (ip), vehicle: saline with Tween-80.

Molecules are shown by their SMILES. The list shows only some results of the screen, not a fair sample: it gathers some chemical classes. Other doses and runs of a compound may be missing. T/C is the treated group as % of the vehicle group. Some entries give survivors of the animals treated and no T/C: the source holds a T/C of zero for them, seemingly a mark for toxic or unscored doses. Some survivor counts are full or nearly so, which does not show that the dose was tolerated: survival well below the control is almost never listed, so the zero probably covers shortened survival too. Counts of survivors are from the toxicity check (mostly the fifth day) where no day follows; animals may have died later. Schedule codes are those of the source, read here as Q, the interval in days (D) or hours (H), X, the number of doses. For survival time, this PubChem deposit counts one and a half times the control or more as active, and values a quarter to a half above the control carry no call in these data; other NCI protocols may use other cut-offs. Counts like (3×) say how often a value occurs here. Some entries were tested several times; the values are given in rising order. Some entries show no survivor count and are marked so; the dose need not have been tolerated. Some T/C values carry the count of animals alive at the toxicity check (mostly the fifth day); where neither a count nor a note follows, no animal had died by that day.

Turning to `CC(Cl)CSc1ccccc1` (stereo not drawn), the T/C is, setting by setting: under setting [1], 106 % of control; under setting [2], 118 % of control.

In the case of `O=P1(N(CCCl)CCCl)NC(CO)CO1` (stereo not drawn), the T/C was 94 and 95 % of control (dose: 6.25 mg/kg/injection, schedule: Q01DX009 (ip), vehicle: water); 94 and 95 % of control (dose: 12.5 mg/kg/injection, schedule: Q01DX009 (ip), vehicle: water); 97 % of control (dose: 15.62 mg/kg/injection, schedule: Q01DX001 (ip), vehicle: DMSO); 97 and 98 % of control (dose: 23.3 mg/kg/injection, schedule: Q01DX001 (ip), vehicle: water); 94 and 100 % of control (dose: 25.0 mg/kg/injection, schedule: Q01DX009 (ip), vehicle: water); 106 % of control (dose: 31.25 mg/kg/injection, schedule: Q01DX001 (ip), vehicle: DMSO). The T/C runs as follows: (dose: 38.9 mg/kg/injection, schedule: Q01DX001 (ip), vehicle: water) 101 % of control (2×); (dose: 50.0 mg/kg/injection, schedule: Q01DX009 (ip), vehicle: water) 97 and 100 % of control; (dose: 62.5 mg/kg/injection, schedule: Q01DX001 (ip), vehicle: DMSO) 108 % of control; (dose: 64.8 mg/kg/injection, schedule: Q01DX001 (ip), vehicle: water) 98 % of control (2×); (dose: 100.0 mg/kg/injection, schedule: Q01DX009 (ip), vehicle: water) 97 and 105 % of control; (dose: 108.0 mg/kg/injection, schedule: Q01DX001 (ip), vehicle: water) 101 % of control (2×). The T/C is, setting by setting: (dose: 125.0 mg/kg/injection, schedule: Q01DX001 (ip), vehicle: DMSO) 124 % of control; (dose: 180.0 mg/kg/injection, schedule: Q01DX001 (ip), vehicle: water) 101 and 103 % of control; (dose: 200.0 mg/kg/injection, schedule: Q01DX009 (ip), vehicle: water) 103 and 114 % of control; (dose: 250.0 mg/kg/injection, schedule: Q01DX001 (ip), vehicle: DMSO) 132 % of control; (dose: 300.0 mg/kg/injection, schedule: Q01DX001 (ip), vehicle: water) 103 and 104 % of control. Moreover, the survivor count (dose: 500.0 mg/kg/injection, schedule: Q01DX001 (ip), vehicle: DMSO) is reported as 6 of 6.

With `Cc1c([N+](=O)[O-])c(C)c([N+](=O)[O-])c(C2CCCCC2)c1[N+](=O)[O-]`, the T/C by setting is: under setting [3], 98 % of control; under setting [4], 102 % of control; under setting [5], 95 % of control.

Turning to `O=C1c2cc([N+](=O)[O-])cc([N+](=O)[O-])c2-c2c1cc([N+](=O)[O-])cc2[N+](=O)[O-]`, the T/C is, setting by setting: under setting [1], 90 % of control [survivor count not shown]; under setting [3], 93 % of control [survivor count not shown]; under setting [4], 98 % of control [survivor count not shown].

On to `CCN(CC)CCOC(=O)C(O)(c1ccc(C)cc1)c1ccc(C)cc1`, for which the T/C (dose: 75.0 mg/kg/injection, schedule: Q01DX001 (ip), vehicle: other) was 103 % of control. Also, the survivor count is given as 0 of 6 (dose: 150.0 mg/kg/injection, schedule: Q01DX001 (ip), vehicle: other) and 0 of 6 (dose: 300.0 mg/kg/injection, schedule: Q01DX001 (ip), vehicle: other).

As for `C1CCC(C2=NCCS2)CC1.O=[N+]([O-])c1cc([N+](=O)[O-])c(O)c([N+](=O)[O-])c1`, the T/C under setting [1] was 104 % of control [survivor count not shown] and the T/C under setting [2] was 104 % of control [survivor count not shown].

Regarding `Cc1ccc2c(c1)C[P+](c1ccccc1)(c1ccccc1)CCC2C.F[P-](F)(F)(F)(F)F` (stereo not drawn), the T/C under setting [6] is 98 % of control. For the same compound, the survivor count (dose: 200.0 mg/kg/injection, schedule: Q04DX002 (ip), vehicle: saline with Tween-80) is 2 of 3 and the survivor count (dose: 400.0 mg/kg/injection, schedule: Q04DX002 (ip), vehicle: saline with Tween-80) is 1 of 3.

On to `CCN(CCCl)CCOc1ccc([N+](=O)[O-])cc1`, for which the T/C reads like this: (dose: 4.0 mg/kg/injection, schedule: Q01DX009 (ip), vehicle: saline with Tween-80) 100 % of control; (dose: 6.0 mg/kg/injection, schedule: Q01DX009 (ip), vehicle: saline with Tween-80) 105 % of control; (dose: 9.0 mg/kg/injection, schedule: Q01DX009 (ip), vehicle: saline with Tween-80) 97 % of control. The survivor count by setting is: under setting [2], 2 of 6; (dose: 200.0 mg/kg/injection, schedule: Q01DX009 (ip), vehicle: saline with Tween-80) 0 of 6; (dose: 400.0 mg/kg/injection, schedule: Q01DX009 (ip), vehicle: saline with Tween-80) 0 of 6.

Take `F[P-](F)(F)(F)(F)F.c1ccc([P+]2(c3ccccc3)CCc3ccccc3C2)cc1`: the survivor count (dose: 6.25 mg/kg/injection, schedule: Q04DX003 (ip), vehicle: saline with Tween-80) was 1 of 3; the survivor count (dose: 12.5 mg/kg/injection, schedule: Q04DX003 (ip), vehicle: saline with Tween-80) is given as 0 of 3; the survivor count (dose: 25.0 mg/kg/injection, schedule: Q04DX003 (ip), vehicle: saline with Tween-80) was 0 of 3; the survivor count under setting [3] is listed as 0 of 3; the survivor count under setting [4] is on record as 0 of 3; the survivor count under setting [5] is 0 of 3.

`COC(=O)/C(=C\c1ccccc1)CN1CCCCC1.O=[N+]([O-])c1cc([N+](=O)[O-])c(O)c([N+](=O)[O-])c1`: the T/C reads like this: (dose: 100.0 mg/kg/injection, schedule: Q01DX001 (ip), vehicle: saline with Tween-80) 102 % of control [survivor count not shown]; (dose: 200.0 mg/kg/injection, schedule: Q01DX001 (ip), vehicle: saline with Tween-80) 98 % of control [survivor count not shown]; (dose: 400.0 mg/kg/injection, schedule: Q01DX001 (ip), vehicle: saline with Tween-80) 98 % of control [survivor count not shown].

On to `N/C(=N\[N+](=O)[O-])N(CCCl)N=O`, for which the T/C was 104 % of control (dose: 100.0 mg/kg/injection, schedule: Q04DX003 (ip), vehicle: saline); 104 % of control (dose: 200.0 mg/kg/injection, schedule: Q04DX003 (ip), vehicle: saline); 104 % of control (dose: 400.0 mg/kg/injection, schedule: Q04DX003 (ip), vehicle: saline).

Consider `C1CN1`, for which the T/C runs as follows: (dose: 6.25 mg/kg/injection, schedule: Q01DX009 (ip), vehicle: saline with Tween-80) 102 % of control; (dose: 12.5 mg/kg/injection, schedule: Q01DX009 (ip), vehicle: saline with Tween-80) 106 % of control [5 of 6 alive]; (dose: 25.0 mg/kg/injection, schedule: Q01DX009 (ip), vehicle: saline with Tween-80) 120 % of control; (dose: 25.0 mg/kg/injection, schedule: Q04DX002 (ip), vehicle: saline with Tween-80) 109 % of control. Moreover, the survivor count is 1 of 3 (dose: 50.0 mg/kg/injection, schedule: Q04DX002 (ip), vehicle: saline with Tween-80) and 1 of 3 under setting [6].

Consider `CCN(CCCl)Cc1ccccc1`, for which, for the setting “dose: 50.0 mg/kg/injection, schedule: Q04DX003 (ip), vehicle: saline”, the T/C was 91 % of control.

Consider `CCN(CC)[P+](c1ccc(OC)cc1OC)(N(CC)CC)N(CC)CC.F[P-](F)(F)(F)(F)F`, for which the T/C (dose: 6.25 mg/kg/injection, schedule: Q01DX009 (ip), vehicle: Klucel (hydroxypropylcellulose) (HPC)) is 109 % of control [5 of 6 alive]; the T/C (dose: 12.5 mg/kg/injection, schedule: Q01DX009 (ip), vehicle: Klucel (hydroxypropylcellulose) (HPC)) is 91 % of control; the T/C (dose: 25.0 mg/kg/injection, schedule: Q01DX009 (ip), vehicle: Klucel (hydroxypropylcellulose) (HPC)) is 89 % of control [4 of 6 alive]. Also, under “dose: 50.0 mg/kg/injection, schedule: Q01DX009 (ip), vehicle: Klucel (hydroxypropylcellulose) (HPC)”, the survivor count is listed as 1 of 6.
